PubChem BioAssay AID504786 | Drosophila RNAi Screening Center, 2011
The deposit covers about 21,000 reagents; this is an unselected part of those with a known target gene and a result. 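Primary screen; positive scores mean lost reporter signal, so the sign may be inverted from the usual convention.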 Names joined by + are all predicted targets of the reagent. Not all columns of the deposit are shown.

- Purpose: 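Knock-downs reducing HIF reporter induction by the iron chelator DFO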 (primary screen)
- Cell system: Drosophila S2 cells with a stable HIF luciferase reporter
- Knock-down reagent: long dsRNA against Drosophila genes, about 0.2 µg dsRNA per well of a 384-well plate
- Time to read-out: three days of knock-down, then 20 h of DFO before reading
- Challenge: desferrioxamine (DFO) at 100 µM, an iron chelator that mimics hypoxia, for 20 h
- Measured: 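HIF reporter luminescence in cells given 100 µM DFO for 20 h, using the mouse ldh-a hypoxia-response element, scored as per-plate z-scores; higher means greater loss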
- Reading the numbers: z-score: higher = stronger loss of HIF reporter signal

How did the screen score S-Lap3 (Sperm-Leucylaminopeptidase 3) [DRSC10956]?
z-score, replicate 1: -0.1

How did the screen score CG5554 [DRSC04513]?
z-score, replicate 1: -0.3

How did the screen score Dnaaf4 (Dynein axonemal assembly factor 4) [DRSC02405]?
z-score, replicate 1: -0.4

What did the screen give for Tsp42Ea (Tetraspanin 42Ea) [DRSC04982]?
z-score, replicate 1: -0.3

How did the screen score Tsp42Ea (Tetraspanin 42Ea) [DRSC06792]?
z-score, replicate 1: -0.2

For CG9953 [DRSC11106], what does the deposit list?
z-score, replicate 1: -0.3

With Cul6 (Cullin 6) [DRSC09830], how do the results read?
z-score, replicate 1: -0.1

For sowah (sosondowah) [DRSC09186], how do the results read?
z-score, replicate 1: -0.1

With sowah (sosondowah) [DRSC09758], what was measured?
z-score, replicate 1: -0.3

With CG16863 [DRSC01892], what was measured?
z-score, replicate 1: 0.9

What did the screen give for Frq1 (Frequenin 1) [DRSC19961]?
z-score, replicate 1: -0.4

With CG33309 [DRSC01421], what was measured?
z-score, replicate 1: -0.1

For Lkb1 (Lkb1 kinase) [DRSC16481], how do the results read?
z-score, replicate 1: -0.4

With CG8366 [DRSC07153], what was measured?
z-score, replicate 1: -0.2

For Dr (Drop) [DRSC17002], what does the deposit list?
z-score, replicate 1: -0.4

For CG14710 [DRSC14933], what was measured?
z-score, replicate 1: -0.4

With Culd (CUB and LDLa domain) [DRSC10262], what was measured?
z-score, replicate 1: -0.3

Which result is listed for CG11360 [DRSC17124]?
z-score, replicate 1: 0

How did the screen score CG11360 [DRSC17134]?
z-score, replicate 1: -0.3

What did the screen give for Prat2 (Phosphoribosylamidotransferase 2) [DRSC09692]?
z-score, replicate 1: -0.2

For CG5348 [DRSC06933], how do the results read?
z-score, replicate 1: -0.3

What did the screen give for Enoph (Enolase-phosphatase) [DRSC12201]?
z-score, replicate 1: -0.2

With CG3788 [DRSC04418], what does the deposit list?
z-score, replicate 1: -0.3

What is on record for Coq4 + Gorab + frc [DRSC10383]?
z-score, replicate 1: -0.2

What did the screen give for pyx (pyrexia) [DRSC08510]?
z-score, replicate 1: -0.3

What is on record for pyx (pyrexia) [DRSC08511]?
z-score, replicate 1: 1.1

With CG42258 [DRSC19741], what was measured?
z-score, replicate 1: -0.1

For CG42258 [DRSC19783], what does the deposit list?
z-score, replicate 1: -0.3

For Dhc16F (Dynein heavy chain at 16F) [DRSC20242], what was measured?
z-score, replicate 1: -0.2

How did the screen score VhaSFD (Vacuolar H[+]-ATPase SFD subunit) [DRSC03471]?
z-score, replicate 1: -0.3

With CG15210 [DRSC19656], how do the results read?
z-score, replicate 1: -0.2

For myd (mayday) [DRSC14762], what does the deposit list?
z-score, replicate 1: 2.5

What is on record for myd (mayday) [DRSC15512]?
z-score, replicate 1: -0.8

What is on record for CG1492 [DRSC19605]?
z-score, replicate 1: -0.3

What did the screen give for CG7080 [DRSC16193]?
z-score, replicate 1: -0.3

How did the screen score CG11596 [DRSC18540]?
z-score, replicate 1: -0.2

Which result is listed for CG13216 [DRSC06338]?
z-score, replicate 1: -0.2

For Coa8 (Cytochrome c oxidase assembly factor 8) [DRSC17959], what does the deposit list?
z-score, replicate 1: -0.2

For CG30419 [DRSC04208], what was measured?
z-score, replicate 1: -0.1

What is on record for CG30419 [DRSC04209]?
z-score, replicate 1: -0.1
